The target in the test is CSPα ΔJ-SBP-FLAG (UniProt Q9H3Z4). Description: co-IP.

By UniProt entry, the sequences of proteins in these tests, tags left out. Where a name states a change or a piece, a line headed by the entry shows the natural chain unless it says otherwise.
UniProt Q9H3Z4: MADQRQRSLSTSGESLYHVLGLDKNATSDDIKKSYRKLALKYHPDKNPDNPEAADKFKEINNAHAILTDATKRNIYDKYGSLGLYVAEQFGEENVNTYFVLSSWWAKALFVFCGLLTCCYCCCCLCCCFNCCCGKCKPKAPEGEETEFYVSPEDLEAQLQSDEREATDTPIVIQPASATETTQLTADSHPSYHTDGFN

These are yes or no findings as the source states them, for the method shown. In cells and extracts the contact can be indirect. Binding calls can cover weak binding; strength is not graded here.

On to “CD98hc (endogenous) (from UniProt P08195 1-529)”, for which the binding result is listed as “binds”.
